# Among all 400,000 compounds or so, about 5,500 (1.4%) were called active. Inconclusive results, whose numbers are uncertain, are shown with a selection of clear calls. Calls follow the shape of the dose curve; as a rule, active = well fitted cell-killing curve with a large enough effect; inconclusive = small, poorly fitted or top-dose-only effect, or effect the other way; inactive = flat fitted curve, though single readings scatter. Where the call is inconclusive, the potency comes from a doubtful curve fit.
# Assay: qHTS assay for MDR1-selective chemotherapeutics: Primary screen using the parental adenocarcinoma cell KB-3-1; also: nearly all actives have a fitted effect of over 60% in size
# Conditions: KB-3-1 viability, CellTiter-Glo ATP luminescence, 72 h; activity change, negative = cytotoxic: at 46.1 µM (top of the series)
# How it was run: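 Luminescent ATP read-out (CellTiter-Glo) measures survival of drug-naive KB-3-1 cells after 72 h compound exposure at 37 °C. Titration series was screened from lowest to highest concentration, with DMSO vehicle plates as background controls.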
# % is scaled to controls: 0 for no effect and ±100 for the full control effect; potency is read from the fitted curve at half-maximal effect.
SMILES,"activity change, negative = cytotoxic",Potency
Cn1c(=O)c2c(-c3ccc(Cl)cc3)ccnc2n(C)c1=O,inactive: 7.25%,
Fc1ccc(-[n+]2nc(Nc3ccccc3)sc2-c2ccc(OCc3ccccc3)cc2)cc1,,"inconclusive: 3.66 µM [cytotoxic, partial curve, poor fit]"
CCOC(=O)c1c[nH]c2c3c(ccc2c1=O)CCCC3,inactive: 17.7%,
CCc1nc2c(OCc3ccc(Cl)cc3Cl)cccn2c1N(C)C(=O)CC(C)C,,"inconclusive: 20.6 µM [cytotoxic, single point]"
CCCCS/C(=C(/C#N)C(N)=O)c1cc2c([nH]1)CCCC2,,"inconclusive: 29.1 µM [cytotoxic, single point]"
NNc1nnc2c3cc(F)ccc3n(Cc3ccccc3)c2n1,,"inconclusive: 18.4 µM [cytotoxic, single point]"
CC(C)NC(=O)NC(=O)COc1cccc2c1OC(C)(C)C2,,"inconclusive: 18.4 µM [cytotoxic, single point]"
O=C(Nc1ccccc1)c1cccc(S(=O)(=O)NCc2ccco2)c1,,"inconclusive: 16.4 µM [cytotoxic, single point]"
Cc1ccc(N(CC(=O)Nc2ccc(F)c(Cl)c2)S(=O)(=O)c2c(C)noc2C)cc1,,"inconclusive: 29.1 µM [cytotoxic, single point]"
C=C(C)[C@@H]1CC[C@]2(C(=O)O)CC[C@]3(C)C(CCC4[C@@]5(C)CC[C@H](O)C(C)(C)C5CC[C@]43C)C12 (some centres not stated),,"inconclusive: 20.6 µM [cytotoxic, single point]"
CCC(=O)N1CCN(c2ccc(NC(=O)COc3ccccc3Cl)cc2)CC1,,"inconclusive: 7.31 µM [cytotoxic, partial curve, poor fit]"
NC(=O)CC(NC(=O)Cc1cccc2ccccc12)c1ccc(NCCc2ccccc2F)c([N+](=O)[O-])c1 (configuration not stated),inactive: 0%,
COc1ccc(-n2c(C)cc(C(=O)COC(=O)c3ccc(O)cc3O)c2C)cc1,,"inconclusive: 29.1 µM [cytotoxic, single point]"
CS(=O)(=O)N1CCN(C(=O)CCc2ccccc2)CC1,inactive: 19.2%,
Nc1cc2c(cc1N)-c1ccccc1C2,,"inconclusive: 8.2 µM [cytotoxic, partial curve]"
O=C1C2C3CCCC3=C3CCCC3C2C(=O)N1c1cccc(Cl)c1 (configuration not stated),,"inconclusive: 29.1 µM [cytotoxic, single point]"
COc1ccc(S(=O)(=O)N2CCN(S(=O)(=O)c3ccc4c(c3)OCCO4)CC2)cc1C,inconclusive: 0%,
COc1ccc(C(=O)NC(=S)Nc2ccc(Cl)cn2)cc1OC,,"inconclusive: 16.4 µM [rising, partial curve, poor fit]"
Cc1ccc(C(=O)NCC(=O)OCc2nnc(-c3ccc([N+](=O)[O-])cc3)o2)s1,,"inconclusive: 25.9 µM [rising, single point]"
COc1cc(CNC[C@H]2O[C@@H](n3ccc(N)nc3=O)[C@H](O)[C@@H]2O)ccc1OCc1cccc(Cl)c1,inactive: 15.8%,
O=C(NCCO)/C(=C\c1ccco1)NC(=O)c1cccs1,inactive: -1.17%,

SMILES,"activity change, negative = cytotoxic",Potency
C#CCOCCOCCOCCNc1nc(N2CCOCC2)nc(N2CCN(C(=O)[C@H](CCC(=O)O)n3cc(C(N)[C@H](C)CC)nn3)CC2)n1 (some centres not stated),inconclusive: 21.7%,
Cc1ccc(-c2nnc(Oc3ccc(NC(=O)c4ccccc4)cc3)c3ccccc23)cc1,,"inconclusive: 29.1 µM [cytotoxic, single point]"
CCCN(CCC)C(=O)Nc1ccc(F)cc1F,inactive: 24.3%,
CCOC(=O)C(=Cc1ccc(Br)cc1)C(=O)OCC,,"inconclusive: 29.1 µM [cytotoxic, single point]"
Cc1ccc(OCC(=O)Nc2ccccc2Sc2ccc(Cl)cc2)c([N+](=O)[O-])n1,,"inconclusive: 29.1 µM [cytotoxic, single point]"
Cc1c(Cc2ccccc2)c(=O)oc2c(O)c(O)ccc12,,"inconclusive: 11.6 µM [cytotoxic, partial curve, poor fit]"
CC(C)N1CCCC(C)(C(=O)Nc2cccc(Oc3ccccc3)c2)C1 (configuration not stated),,"inconclusive: 3.66 µM [cytotoxic, full curve, poor fit]"
Cc1ccc([C@H]2C[C@@H](n3cc(C4CC4)nn3)[C@H](O)CN2Cc2cccs2)cc1,,"inconclusive: 8.2 µM [cytotoxic, partial curve, poor fit]"
Nc1nc(Nc2ccc(Cl)cc2Cl)nc(C(F)(F)F)n1,,"inconclusive: 29.1 µM [cytotoxic, single point]"
COc1cccc(OCC(=O)NNC(=O)c2ccc3ccccc3c2)c1,inactive: -0.36%,
Cc1cccc2cc(CN(Cc3ccc(F)cc3)C(=O)N(C)C)c3nnnn3c12,,"inconclusive: 29.1 µM [cytotoxic, single point]"
CCn1nc(C)c(CCN(C)C(=O)Nc2cc(Cl)c(OC)cc2OC)c1C,inactive: -4.62%,
C/C(=N\NC(=O)c1cc(C)nc2ccccc12)c1ccncc1,,"inconclusive: 23.1 µM [cytotoxic, single point]"
O=C(C(c1ccccc1)c1ccccc1)N1CCN(c2ccccn2)CC1,,"inconclusive: 32.6 µM [cytotoxic, single point]"
CCC(=O)N1CCN(c2ccc(NC(=O)c3ccc4c(c3)OCCO4)cc2)CC1,inactive: -1.42%,
CCC1CCCCN1S(=O)(=O)c1ccc(C(=O)Nc2nnc(-c3ccccc3Cl)o2)cc1 (configuration not stated),,"inconclusive: 3.26 µM [cytotoxic, full curve]"
O=C(Cn1ncc(Cl)c(Cl)c1=O)N1CCN(Cc2ccccc2)CC1,,"inconclusive: 16.4 µM [cytotoxic, single point]"
CC(C)c1ccc(NC(=O)C2CCC(CNS(=O)(=O)c3ccc4c(c3)CCCC(=O)N4)CC2)cc1 (configuration not stated),inactive: 1.13%,
COC(=O)C1=C(C)N(Cc2ccccc2)C(=S)N[C@H]1c1cccc(C(F)(F)F)c1,,"inconclusive: 23.1 µM [cytotoxic, single point]"
CCOC(=O)c1sc(NC(=O)/C=C/c2cnn(CC)c2C)c(C(=O)OCC)c1C,,"inconclusive: 4.61 µM [rising, partial curve]"
COc1cccc(-c2cc(C(=O)Nc3cccnc3)no2)c1,,"inconclusive: 29.1 µM [cytotoxic, single point]"

# Compounds shown so far containing a furan ring, fused or not (two):
SMILES,"activity change, negative = cytotoxic",Potency
O=C(Nc1ccccc1)c1cccc(S(=O)(=O)NCc2ccco2)c1,,"inconclusive: 16.4 µM [cytotoxic, single point]"
O=C(NCCO)/C(=C\c1ccco1)NC(=O)c1cccs1,inactive: -1.17%,

# Part of the list above in order of SMILES length, high to low.
SMILES,"activity change, negative = cytotoxic",Potency
Cc1ccc(C(=O)NCC(=O)OCc2nnc(-c3ccc([N+](=O)[O-])cc3)o2)s1,,"inconclusive: 25.9 µM [rising, single point]"
Cc1ccc(OCC(=O)Nc2ccccc2Sc2ccc(Cl)cc2)c([N+](=O)[O-])n1,,"inconclusive: 29.1 µM [cytotoxic, single point]"
CCOC(=O)c1sc(NC(=O)/C=C/c2cnn(CC)c2C)c(C(=O)OCC)c1C,,"inconclusive: 4.61 µM [rising, partial curve]"
